Data source: PubChem BioAssay AID1224826 (NIAID, 2016)
In all, the deposit lists about 17,000 reagents; below is a part drawn at random. About 1,110 of all reagents (6.6%) were called active. 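Active means lowered or raised reporter signal; replicate intensities are raw and not normalised per plate.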 Entries without a mark were called inactive. Not all columns of the deposit are shown.

Test: 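Genes that change LPS-induced Tnf promoter activity in mouse macrophages when knocked down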 (primary screen)
Cell system: RAW264.7 G9 macrophages from mouse bearing reporters for p65 (GFP) and the Tnf promoter (mCherry)
Reagents: siRNA pool against mouse genes, 100 nM
Timing: 16 h of LPS stimulation, after 2 days of siRNA transfection
Challenge: bacterial lipopolysaccharide (Salmonella minnesota R595), 10 ng/ml
Detection: 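Imaged Tnf reporter mCherry in nuclei, minus background, normalised per plate to the median and expressed as robust z-scores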
Scale: Tnf reporter robust z-score: higher = stronger Tnf promoter reporter signal after LPS
Active means: 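a well counts as active at a score of -1.3 or below (Tlr4 knock-down control median) or above 3 (raised signal); controls and wells holding fewer than 50 cells are excluded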
Calls: active = Tnf reporter clearly lowered or raised; inactive = no clear change in Tnf reporter

Porcn — Tnf reporter robust z-score = 0.12; fewer than 50 cells in well = enough cells in well
Atp5pd — fewer than 50 cells in well = fewer than 50 cells per well; well left out of calls
Cyp3a41a — Tnf reporter robust z-score = 0.25; fewer than 50 cells in well = enough cells in well
Drd4 — Tnf reporter robust z-score = -0.04; fewer than 50 cells in well = enough cells in well
Ugt2b5 — fewer than 50 cells in well = fewer than 50 cells per well; well left out of calls
Nln — Tnf reporter robust z-score = -0.5; fewer than 50 cells in well = enough cells in well
Ptprr — Tnf reporter robust z-score = -1.14; fewer than 50 cells in well = enough cells in well
Slc60a1 — Tnf reporter robust z-score = -0.17; fewer than 50 cells in well = enough cells in well
Plin5 — fewer than 50 cells in well = fewer than 50 cells per well; well left out of calls
Or2d36 — fewer than 50 cells in well = fewer than 50 cells per well; well left out of calls
Ctsll3 — Tnf reporter robust z-score = 0.21; fewer than 50 cells in well = enough cells in well
Rps6 — fewer than 50 cells in well = fewer than 50 cells per well; well left out of calls
Hunk — Tnf reporter robust z-score = 0.06; fewer than 50 cells in well = enough cells in well
Nt5el — Tnf reporter robust z-score = -0.73; fewer than 50 cells in well = enough cells in well

Reformatted: 2 of the entries above.
target gene,Tnf reporter robust z-score,fewer than 50 cells in well
Ugt2b5,,fewer than 50 cells per well; well left out of calls
Nln,-0.5,enough cells in well
